Patent publication US6444849B1, “Amide derivatives” (Mitsubishi Chemical Corporation, priority 1997, dated 2002)
Some of these results come from one statement about several compounds together. For at least one compound, name, drawing or mass did not settle the structure.

Tested on: SD male and female rats
Assay type: in vivo, rat
Conditions: oral, suspended in 0.5% CMC-Na aqueous solution, observed for seven days

## CNC(=O)c1cccc(NC(=O)Cc2ccc3ccccc3c2)c1 [Example 31, N-(3-Methylcarbamoylphenyl)-2-naphthylacetnide]
  LD50: ≥ 2,000 mg/kg
